# Source: patent US20050130896A1
# The chains behind the UniProt entries cited, without tags or fusion partners. Residues count along the entry.
# UniProt P35739, residues 33-799: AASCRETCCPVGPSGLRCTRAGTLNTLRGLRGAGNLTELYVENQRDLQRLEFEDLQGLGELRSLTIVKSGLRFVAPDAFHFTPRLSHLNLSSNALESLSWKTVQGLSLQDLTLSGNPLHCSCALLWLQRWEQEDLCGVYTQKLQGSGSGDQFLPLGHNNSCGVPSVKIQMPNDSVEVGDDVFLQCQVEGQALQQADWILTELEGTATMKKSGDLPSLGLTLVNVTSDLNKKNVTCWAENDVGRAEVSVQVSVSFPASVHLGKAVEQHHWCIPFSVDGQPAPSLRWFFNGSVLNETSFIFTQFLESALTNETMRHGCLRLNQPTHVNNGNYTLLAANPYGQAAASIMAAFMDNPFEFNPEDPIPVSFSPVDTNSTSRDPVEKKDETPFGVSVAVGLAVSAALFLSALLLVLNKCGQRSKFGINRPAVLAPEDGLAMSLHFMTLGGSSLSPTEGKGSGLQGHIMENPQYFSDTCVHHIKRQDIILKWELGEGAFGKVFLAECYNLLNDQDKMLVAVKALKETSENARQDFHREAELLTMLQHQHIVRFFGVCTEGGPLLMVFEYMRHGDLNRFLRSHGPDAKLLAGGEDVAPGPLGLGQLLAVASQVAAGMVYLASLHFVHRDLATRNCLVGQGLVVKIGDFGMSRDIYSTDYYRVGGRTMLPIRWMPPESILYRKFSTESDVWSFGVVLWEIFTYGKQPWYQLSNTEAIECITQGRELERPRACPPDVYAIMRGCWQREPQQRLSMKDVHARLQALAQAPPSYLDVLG
# No constants are given. Whether binding was seen depends on the method and setting. For some assays here: In cells and extracts the contact can be indirect. Some entries that bind do so weakly or less than the wild type.
# Assays:
# [1] = target: TrkA (in PC12 cells) (UniProt P35739); experiment: immunoprecipitation of TrkA from NGF-stimulated PC12 cells, immunoblots
# [2] = target: GST-S5a (UniProt P55036); experiment: GST-S5a pull-down from lysates of transfected HEK cells
substance,measurement,setting,value
p62 (in PC12 cells) (from UniProt O08623 2-439),binding,[1],binds
myc-tagged wild-type (WT) p62; full-length p62 (amino acids 1 to 440) (from UniProt Q13501 1-440),binding,[2],binds
